{"source": "the supplement of paper PMC8728848", "binders": {"B1": {"name": "AcfC (Vibrio cholerae), Q57410 (protein)", "chain": "MKSKNRFLLISLLSFSTSVFADVNLYGPGGPHVPLIKVAESFEKSQSKRVNITFGPQATWNDKAKKNADILFGASEHSALAIAEGHSERFSKFNIHPVFMREAIILVKKGNPKNIKGMADLLKPGIGIVVNDGAGVSNTSGTAVWEDSVGRMKNVEKLQAFRSNIHVFAPNSGSARKAFVDGEDIDAWITWVDWAIANPTIGDMVRMEDEYRIYRDFNVVLAKNPSSEAIDFFDYLTKSKDAEAIFQHYGWFK"}}, "test_in_all_cases": "glycan array binding signal (z-score within array); higher = stronger binding", "conditions_in_all_cases": "glycan notation: IUPAC condensed, linker removed", "key": {"[1]": {"biological_target": "Gal(b1-4)GlcNAc(b1-6)[Gal(b1-3)]GalNAc", "procedure,_shortened": "(§1)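 Glycan array data came from 3228 arrays in the Consortium for Functional Glycomics database, and only arrays with an available protein sequence were kept. Glycan names were put into IUPAC-condensed notation, and columns mapping to the same glycan were averaged. The binding signal is a within-array Z-score, averaged across arrays of one protein sequence run at different concentrations or buffers and across linkers. A negative Z-score can be read as non-binding.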"}, "Gal3S(b1-3)GalNAc": {"biological_target": "Gal3S(b1-3)GalNAc", "procedure,_shortened": "as §1"}, "Gal3S(b1-3)GlcNAc": {"biological_target": "Gal3S(b1-3)GlcNAc", "procedure,_shortened": "as §1"}, "[2]": {"biological_target": "Gal3S(b1-3)[Fuc(a1-4)]GlcNAc", "procedure,_shortened": "as §1"}, "Gal3S(b1-4)Glc": {"biological_target": "Gal3S(b1-4)Glc", "procedure,_shortened": "as §1"}, "Gal3S(b1-4)Glc6S": {"biological_target": "Gal3S(b1-4)Glc6S", "procedure,_shortened": "as §1"}, "Gal3S(b1-4)GlcNAc": {"biological_target": "Gal3S(b1-4)GlcNAc", "procedure,_shortened": "as §1"}, "Gal3S(b1-4)GlcNAc6S": {"biological_target": "Gal3S(b1-4)GlcNAc6S", "procedure,_shortened": "as §1"}, "[3]": {"biological_target": "Gal3S(b1-4)[Fuc(a1-3)]Glc", "procedure,_shortened": "as §1"}, "[4]": {"biological_target": "Gal3S(b1-4)[Fuc(a1-3)]Glc6S", "procedure,_shortened": "as §1"}, "Gal3S4S(b1-4)GlcNAc": {"biological_target": "Gal3S4S(b1-4)GlcNAc", "procedure,_shortened": "as §1"}, "Gal3S6S(b1-4)GlcNAc": {"biological_target": "Gal3S6S(b1-4)GlcNAc", "procedure,_shortened": "as §1"}, "Gal3S6S(b1-4)GlcNAc6S": {"biological_target": "Gal3S6S(b1-4)GlcNAc6S", "procedure,_shortened": "as §1"}, "Gal4S(b1-4)GlcNAc": {"biological_target": "Gal4S(b1-4)GlcNAc", "procedure,_shortened": "as §1"}, "Gal4S6S(b1-4)GlcNAc": {"biological_target": "Gal4S6S(b1-4)GlcNAc", "procedure,_shortened": "as §1"}, "Gal6S(b1-4)Glc": {"biological_target": "Gal6S(b1-4)Glc", "procedure,_shortened": "as §1"}, "Gal6S(b1-4)Glc6S": {"biological_target": "Gal6S(b1-4)Glc6S", "procedure,_shortened": "as §1"}, "Gal6S(b1-4)GlcNAc": {"biological_target": "Gal6S(b1-4)GlcNAc", "procedure,_shortened": "as §1"}, "Gal6S(b1-4)GlcNAc6S": {"biological_target": "Gal6S(b1-4)GlcNAc6S", "procedure,_shortened": "as §1"}, "GalNAc(a1-3)Gal": {"biological_target": "GalNAc(a1-3)Gal", "procedure,_shortened": "as §1"}, "GalNAc(a1-3)GalNAc": {"biological_target": "GalNAc(a1-3)GalNAc", "procedure,_shortened": "as §1"}, "[5]": {"biological_target": "GalNAc(a1-3)GalNAc(a1-3)Gal(a1-4)Gal(b1-4)GlcNAc", "procedure,_shortened": "as §1"}, "GalNAc(b1-3)Gal": {"biological_target": "GalNAc(b1-3)Gal", "procedure,_shortened": "as §1"}, "[6]": {"biological_target": "GalNAc(b1-3)Gal(a1-4)Gal(b1-4)GlcNAc", "procedure,_shortened": "as §1"}, "[7]": {"biological_target": "GalNAc(b1-3)Gal(a1-4)Gal(b1-4)GlcNAc(b1-3)Gal(b1-4)Glc", "procedure,_shortened": "as §1"}, "[8]": {"biological_target": "GalNAc(b1-3)Gal(a1-6)Gal(b1-4)Glc", "procedure,_shortened": "as §1"}, "GalNAc(b1-3)GalNAc": {"biological_target": "GalNAc(b1-3)GalNAc", "procedure,_shortened": "as §1"}, "GalNAc(b1-4)GlcNAc": {"biological_target": "GalNAc(b1-4)GlcNAc", "procedure,_shortened": "as §1"}, "[9]": {"biological_target": "GalNAc(b1-4)GlcNAc(b1-2)Man(a1-3)[GalNAc(b1-4)GlcNAc(b1-2)Man(a1-6)]Man(b1-4)GlcNAc(b1-4)GlcNAc", "procedure,_shortened": "as §1"}, "Glc(a1-4)Glc": {"biological_target": "Glc(a1-4)Glc", "procedure,_shortened": "as §1"}, "Glc(a1-6)Glc(a1-6)Glc": {"biological_target": "Glc(a1-6)Glc(a1-6)Glc", "procedure,_shortened": "as §1"}, "Glc(b1-4)Glc": {"biological_target": "Glc(b1-4)Glc", "procedure,_shortened": "as §1"}, "Glc(b1-6)Glc": {"biological_target": "Glc(b1-6)Glc", "procedure,_shortened": "as §1"}, "GlcA(b1-3)Gal": {"biological_target": "GlcA(b1-3)Gal", "procedure,_shortened": "as §1"}, "GlcA(b1-3)GlcNAc": {"biological_target": "GlcA(b1-3)GlcNAc", "procedure,_shortened": "as §1"}, "GlcA(b1-6)Gal": {"biological_target": "GlcA(b1-6)Gal", "procedure,_shortened": "as §1"}, "[10]": {"biological_target": "GlcNAc(a1-3)Gal(b1-4)GlcNAc", "procedure,_shortened": "as §1"}, "[11]": {"biological_target": "GlcNAc(a1-4)Gal(b1-3)GlcNAc", "procedure,_shortened": "as §1"}}, "note": "Some of the results follow.", "data": [{"binder": "B1", "values": [{"measurement": "glycan array binding signal (z-score)", "setting": "[1]", "value": -0.705}, {"measurement": "glycan array binding signal (z-score)", "setting": "Gal3S(b1-3)GalNAc", "value": 0.527}, {"measurement": "glycan array binding signal (z-score)", "setting": "Gal3S(b1-3)GlcNAc", "value": -0.451}, {"measurement": "glycan array binding signal (z-score)", "setting": "[2]", "value": -0.184}, {"measurement": "glycan array binding signal (z-score)", "setting": "Gal3S(b1-4)Glc", "value": -1.26}, {"measurement": "glycan array binding signal (z-score)", "setting": "Gal3S(b1-4)Glc6S", "value": 0.515}, {"measurement": "glycan array binding signal (z-score)", "setting": "Gal3S(b1-4)GlcNAc", "value": 0.272}, {"measurement": "glycan array binding signal (z-score)", "setting": "Gal3S(b1-4)GlcNAc6S", "value": 0.661}, {"measurement": "glycan array binding signal (z-score)", "setting": "[3]", "value": -0.154}, {"measurement": "glycan array binding signal (z-score)", "setting": "[4]", "value": 1.71}, {"measurement": "glycan array binding signal (z-score)", "setting": "Gal3S4S(b1-4)GlcNAc", "value": 0.113}, {"measurement": "glycan array binding signal (z-score)", "setting": "Gal3S6S(b1-4)GlcNAc", "value": 0.605}, {"measurement": "glycan array binding signal (z-score)", "setting": "Gal3S6S(b1-4)GlcNAc6S", "value": 0.18}, {"measurement": "glycan array binding signal (z-score)", "setting": "Gal4S(b1-4)GlcNAc", "value": 0.111}, {"measurement": "glycan array binding signal (z-score)", "setting": "Gal4S6S(b1-4)GlcNAc", "value": 1.37}, {"measurement": "glycan array binding signal (z-score)", "setting": "Gal6S(b1-4)Glc", "value": 0.52}, {"measurement": "glycan array binding signal (z-score)", "setting": "Gal6S(b1-4)Glc6S", "value": -0.014}, {"measurement": "glycan array binding signal (z-score)", "setting": "Gal6S(b1-4)GlcNAc", "value": 0.576}, {"measurement": "glycan array binding signal (z-score)", "setting": "Gal6S(b1-4)GlcNAc6S", "value": 0.357}, {"measurement": "glycan array binding signal (z-score)", "setting": "GalNAc(a1-3)Gal", "value": 0.334}, {"measurement": "glycan array binding signal (z-score)", "setting": "GalNAc(a1-3)GalNAc", "value": -1.25}, {"measurement": "glycan array binding signal (z-score)", "setting": "[5]", "value": -0.157}, {"measurement": "glycan array binding signal (z-score)", "setting": "GalNAc(b1-3)Gal", "value": 0.219}, {"measurement": "glycan array binding signal (z-score)", "setting": "[6]", "value": 1.38}, {"measurement": "glycan array binding signal (z-score)", "setting": "[7]", "value": 0.025}, {"measurement": "glycan array binding signal (z-score)", "setting": "[8]", "value": -1.05}, {"measurement": "glycan array binding signal (z-score)", "setting": "GalNAc(b1-3)GalNAc", "value": 0.05}, {"measurement": "glycan array binding signal (z-score)", "setting": "GalNAc(b1-4)GlcNAc", "value": 0.088}, {"measurement": "glycan array binding signal (z-score)", "setting": "[9]", "value": 1.96}, {"measurement": "glycan array binding signal (z-score)", "setting": "Glc(a1-4)Glc", "value": -0.692}, {"measurement": "glycan array binding signal (z-score)", "setting": "Glc(a1-6)Glc(a1-6)Glc", "value": -1.29}, {"measurement": "glycan array binding signal (z-score)", "setting": "Glc(b1-4)Glc", "value": 0.476}, {"measurement": "glycan array binding signal (z-score)", "setting": "Glc(b1-6)Glc", "value": -0.38}, {"measurement": "glycan array binding signal (z-score)", "setting": "GlcA(b1-3)Gal", "value": -0.742}, {"measurement": "glycan array binding signal (z-score)", "setting": "GlcA(b1-3)GlcNAc", "value": -0.306}, {"measurement": "glycan array binding signal (z-score)", "setting": "GlcA(b1-6)Gal", "value": -0.431}, {"measurement": "glycan array binding signal (z-score)", "setting": "[10]", "value": -0.288}, {"measurement": "glycan array binding signal (z-score)", "setting": "[11]", "value": 0.098}]}]}
